{"source": "patent US20230190614A1", "about": "“SELF-TANNING COMPOSITIONS CONTAINING AN ALKYL SULFONATE AND METHODS THEREOF” (Kao Corporation, priority 2020, published 2023)", "test_system": "keratin (stratum corneum)", "assay": "Determination of relative α-helix/β-sheet index ratio (FT-IR of stratum corneum exposed to 2% aqueous solution)", "set-up": "species or system human", "conditions": "2% (w/w %) aqueous solution of the salt, relative to water; FIG. 9A", "data": [{"smiles": "CCCCCCCCCCCCOS(=O)(=O)[O-].[Na+]", "note": "[SLS, sodium lauryl sulfate]", "values": [{"measurement": "relative α-helix/β-sheet index ratio", "result": "about 0.86"}]}, {"smiles": "CCCCCCCCS(=O)(=O)[O-].[Na+]", "note": "[SOS, sodium 1-octanesulfonate]", "values": [{"measurement": "relative α-helix/β-sheet index ratio", "result": "about 0.97"}]}]}
